From PubChem BioAssay AID493014 (National Center for Advancing Translational Sciences (NCATS), 2011)
Out of some 340,000 compounds screened, about 170 (0.05%) were called active. Inconclusive results, whose numbers are uncertain, are shown with a selection of clear calls. The call rests on the fitted dose curve; in most records, active means well fitted inhibition curve with a large enough effect in the signal ratio, with a control signal flat (not every such curve was filed as active); inconclusive means small, poorly fitted or top-dose-only effect, or effect the other way, or a change in a side signal; inactive means flat fitted curve, though single readings scatter; the % refers to the signal ratio. A potency beside an inconclusive call is a rough fit, not a confirmed value.

Experiment: qHTS Assay to Find Inhibitors of Chronic Active B-Cell Receptor Signaling;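 on activity change, negative = inhibition: plate controls were basal doxycycline-induced cells for no effect and cells given 10 µM MG132 for full effect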
Conditions: ABC-DLBCL IkBa-CBG/CBR reporter, luminescence ratio (green luciferase fused to IkBa over red control in TMD8 lymphoma cells), 4 h; activity change, negative = inhibition: at 46.1 µM (top of the series)
How it was run: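 TMD8 human ABC-DLBCL cells with doxycycline-inducible IκBα–green luciferase fusion and unfused red luciferase, in 0.5% FBS medium; compounds up to 46 uM, 4 h at 37C. Green/red luminescence ratio, filter-overlap corrected, fitted to concentration-response curves.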
Potency means the concentration at half of the fitted maximal effect.

With `O=C(N/N=C/c1c[nH]c2ccc(Br)cc12)c1ccn(Cc2ccc(Cl)cc2)n1` as the compound, how does the activity change, negative = inhibition read?
The activity change, negative = inhibition was inconclusive: -18.3%.

With `Cc1ccccc1N1CC(O)(c2ccccc2)[N+]2=C1SCC2` (stereo not drawn) as the compound, how does the activity change, negative = inhibition read?
Its activity change, negative = inhibition is inconclusive: -16.2%.

For `COCCn1c(SCC(=O)Nc2ccc(NC(=O)c3ccco3)c(OC)c2)nc2ccccc2c1=O`, which activity change, negative = inhibition is on record?
The activity change, negative = inhibition was inconclusive: 6.46%.

Which Potency does the source give for `O=C(CC1NCCc2ccccc21)Nc1ccccc1Cl` (stereo not drawn) here?
The Potency was inconclusive: 35.5 µM [falling, single point].

With `CN1CCN(Cc2c(C#N)c3ccccc3n2C)CC1` as the compound, how does the activity change, negative = inhibition read?
Its activity change, negative = inhibition is “inactive”.

For `Cc1ccc(N(C(=O)Cn2nnc3ccccc32)C(C(=O)NCc2ccco2)c2cccnc2)cc1` (stereo not drawn), which activity change, negative = inhibition is on record?
The activity change, negative = inhibition was inconclusive: 4.51%.

With `Cc1ccc(Nc2nnc(-c3ccc4c(c3)OCO4)o2)c(C)c1` as the compound, how does the Potency read?
Its Potency is inconclusive: 12.6 µM [falling, partial curve].

With `COCCCNC(=O)Nc1ccc(F)cc1F` as the compound, how does the activity change, negative = inhibition read?
Its activity change, negative = inhibition is inconclusive: 0.346%.

With `CC(C)n1ncc2c(C(=O)NCC(=O)Nc3ccccc3Br)cc(C3CC3)nc21` as the compound, how does the activity change, negative = inhibition read?
Its activity change, negative = inhibition is inconclusive: -8.31%.

With `COc1cc(Cl)c(C)cc1NC(=O)CSc1ccccc1` as the compound, how does the Potency read?
Its Potency is inconclusive: 20.6 µM [rising, partial curve, poor fit].

Which activity change, negative = inhibition does the source give for `CC(C)C(c1nnnn1Cc1ccc(F)cc1)N1CCN(C2CCCCC2)CC1` (stereo not drawn) here?
The activity change, negative = inhibition was inconclusive: -1.68%.

For `Cc1ccc(-n2c(C)cc(/C=N/Nc3ccc([N+](=O)[O-])cn3)c2C)cc1`, which activity change, negative = inhibition is on record?
The activity change, negative = inhibition was inconclusive: 4.17%.

For `O=C(Nc1ccc(N2CCCCC2)c(Cl)c1)c1ncn[nH]1`, which activity change, negative = inhibition is on record?
The activity change, negative = inhibition was inconclusive: 0.757%.

With `Cc1cccc(Nc2nc(N)c([N+](=O)[O-])c(N3CC(C)CC(C)C3)n2)c1` (stereo not drawn) as the compound, how does the activity change, negative = inhibition read?
Its activity change, negative = inhibition is “inactive”.

Which activity change, negative = inhibition does the source give for `NC(=O)N1CCN(C(=O)c2ccco2)CC1` here?
The activity change, negative = inhibition was inconclusive: -15.6%.

With `COc1ccccc1N1CCN(/N=C/c2cccc(OC)c2OC)CC1` as the compound, how does the activity change, negative = inhibition read?
Its activity change, negative = inhibition is “inactive”.

For `O=C(Nc1ccc(S(=O)(=O)N2CCOCC2)cc1)c1cc(-c2cc(Cl)ccc2O)n[nH]1`, which Potency is on record?
The Potency was inconclusive: 7.94 µM [falling, partial curve, poor fit].

With `Cc1nn(CC2CCCCC2)c(N)c1-c1ccccc1` as the compound, how does the activity change, negative = inhibition read?
The activity change, negative = inhibition was “inactive”.

With `CC1CCC(NC(=O)c2ccc(NC(=O)CC3SC(N4CCCC4)=NC3=O)cc2)CC1` (stereo not drawn) as the compound, how does the activity change, negative = inhibition read?
Its activity change, negative = inhibition is inconclusive: 4.46%.

With `O=C(CCc1ccccc1)n1nc(-c2ccco2)nc1SCc1ccccc1` as the compound, how does the activity change, negative = inhibition read?
The activity change, negative = inhibition was inconclusive: -16.3%.

For `COc1ccccc1C(=O)N1CCN(c2nc3cc(C)c(C)cc3cc2C#N)CC1`, which activity change, negative = inhibition is on record?
Its activity change, negative = inhibition is inconclusive: -24.5%.

Which activity change, negative = inhibition does the source give for `CC1(C)Cc2cccc(C(=O)NC3CCN(Cc4ccccc4)CC3)c2O1` here?
Its activity change, negative = inhibition is “inactive”.

Which Potency does the source give for `O=C(Nc1nc2ccccc2s1)NC1CCCCC1` here?
Its Potency is inconclusive: 17.8 µM [falling, partial curve].

For `COc1ccc(Cl)cc1NC(=O)COC(=O)CNC(=O)C1CCCCC1`, which activity change, negative = inhibition is on record?
The activity change, negative = inhibition was inconclusive: 3.47%.

Which Potency does the source give for `CCNC(=O)NC(=O)COc1ccccc1C#N` here?
The Potency was inconclusive: 22.4 µM [falling, single point].

For `COC(=O)c1cnn(-c2ccc(C(=O)Nc3ccc(C(C)=O)cc3)cc2)c1N`, which activity change, negative = inhibition is on record?
The activity change, negative = inhibition was “inactive”.

For `COc1ccc(/C(C)=N/Nc2nncc3ccccc23)cc1`, which activity change, negative = inhibition is on record?
The activity change, negative = inhibition was “inactive”.

Which activity change, negative = inhibition does the source give for `CCN(CC)C(=O)CSc1ccccc1N` here?
The activity change, negative = inhibition was inconclusive: 15.7%.

Which activity change, negative = inhibition does the source give for `CC(=O)N(/N=C/c1ccc(C)cc1)c1nc(CCl)cs1` here?
Its activity change, negative = inhibition is inconclusive: 13.1%.

For `Cc1ccc(-n2ncc3c(NC4CCCCC4)ncnc32)cc1`, which activity change, negative = inhibition is on record?
The activity change, negative = inhibition was “inactive”.

Which activity change, negative = inhibition does the source give for `CC(C)CN1C(=O)c2ccc(C(=O)Nc3ccncc3)cc2C1=O` here?
The activity change, negative = inhibition was “inactive”.

With `CCCNC(=O)N1CCN(C(=O)NCCC)CC1` as the compound, how does the activity change, negative = inhibition read?
Its activity change, negative = inhibition is inconclusive: 1.33%.

For `Oc1[nH]c(N=C2N=c3ccccc3=N2)c2ccccc12`, which Potency is on record?
Its Potency is inconclusive: 8.91 µM [cytotoxic, partial curve, poor fit].

For `C=CCC[C@H](Cc1ccc(F)cc1)C(=O)OC[C@@H](NC(=O)[C@@H](CC=C)CC(=O)N[C@H](CO)Cc1ccccc1)C(C)(C)C`, which activity change, negative = inhibition is on record?
The activity change, negative = inhibition was inconclusive: 2.39%.

For `CC1(C)CC(=O)C=C(N2CCCC2)C1`, which Potency is on record?
The Potency was inconclusive: 2.59 µM [falling, partial curve, poor fit].

With `Fc1ccccc1CSc1nc2ncc(Br)cc2[nH]1` as the compound, how does the activity change, negative = inhibition read?
The activity change, negative = inhibition was inconclusive: 2.02%.

Which Potency does the source give for `CCOc1ccc(N(CC(=O)Nc2ccccc2C)S(=O)(=O)c2c(C)noc2C)cc1` here?
The Potency was inconclusive: 11.2 µM [falling, partial curve].

For `O=C(COC(=O)Cc1ccsc1)NCC12CC3CC(CC(C3)C1)C2`, which activity change, negative = inhibition is on record?
Its activity change, negative = inhibition is inconclusive: 6.2%.

With `COCCn1c(SCC(=O)Nc2ccc3c(c2)OCCO3)nnc1-c1c[nH]c2ccccc12` as the compound, how does the activity change, negative = inhibition read?
Its activity change, negative = inhibition is inconclusive: 4.54%.

With `Cc1noc(C)c1S(=O)(=O)N(C)C[C@H]1Oc2ccc(NS(=O)(=O)c3cn(C)cn3)cc2C(=O)N([C@H](C)CO)C[C@@H]1C` as the compound, how does the activity change, negative = inhibition read?
The activity change, negative = inhibition was inconclusive: -0.583%.

Which activity change, negative = inhibition does the source give for `CCC(C)NC(=O)c1cc(Cl)c(NC(=O)C2=C(C)OCCS2)cc1OC` (stereo not drawn) here?
Its activity change, negative = inhibition is inconclusive: 2.53%.

Which activity change, negative = inhibition does the source give for `CSc1ccc(NC(=O)NCc2cccnc2)cc1` here?
The activity change, negative = inhibition was “inactive”.

With `CCCC(=O)Nc1ccc(C#Cc2ccccc2)cc1` as the compound, how does the activity change, negative = inhibition read?
The activity change, negative = inhibition was inconclusive: 14.5%.

With `Cc1cc(C)cc(NC(=S)NC2CC3CCCC(C2)N3C2CC2)c1` (stereo not drawn) as the compound, how does the activity change, negative = inhibition read?
The activity change, negative = inhibition was “inactive”.

With `C=CCN(CC=C)C(=S)NCCc1ccc(OC)c(OC)c1` as the compound, how does the activity change, negative = inhibition read?
Its activity change, negative = inhibition is inconclusive: -4.27%.

Which activity change, negative = inhibition does the source give for `CN(C1CCCCC1)S(=O)(=O)c1ccc(S(=O)(=O)N2CCN(C(=O)c3ccccc3F)CC2)cc1` here?
Its activity change, negative = inhibition is inconclusive: 14.8%.

For `CC1CC(C)CN(c2oc(-c3ccccc3Cl)nc2C#N)C1` (stereo not drawn), which activity change, negative = inhibition is on record?
The activity change, negative = inhibition was “inactive”.

With `Cc1cc(Br)ccc1NC(=O)C1CCN(S(=O)(=O)c2cnc[nH]2)CC1` as the compound, how does the activity change, negative = inhibition read?
The activity change, negative = inhibition was “inactive”.

With `CCCNC(=O)c1cccc(COc2ccccc2OC)c1` as the compound, how does the Potency read?
The Potency was inconclusive: 35.5 µM [falling, single point].

With `COc1ccc(/C=N/NC(=O)c2ccc3c(c2)OCO3)c(C(=O)O)c1OC` as the compound, how does the Potency read?
Its Potency is inconclusive: 15.8 µM [falling, partial curve].

With `CCOC(=O)[C@@H]1[C@H]2COc3ccccc3[C@H]2N2C(=O)N(c3cccc(Cl)c3)C(=O)[C@@]12C` as the compound, how does the activity change, negative = inhibition read?
Its activity change, negative = inhibition is inconclusive: -12.3%.

For `O=C1OC(c2ccccc2)=N/C1=C\C=C\c1ccco1`, which Potency is on record?
The Potency was inconclusive: 25.1 µM [falling, single point].

With `Cc1ccccc1Cn1cc(NC(=O)c2cc3nc(-c4ccco4)cc(C(F)(F)F)n3n2)cn1` as the compound, how does the activity change, negative = inhibition read?
Its activity change, negative = inhibition is “inactive”.
